Results are given in words; binding and its absence hold for the method and conditions named. Binding seen in cells or lysates may run through a third protein. Some binding calls cover weakened binding; strength is not graded here. For part of these data: Sequences can lack the tags named with a protein.

Amino acid sequences for entries named in this document (tags omitted). A change or cut given only in a name is not applied to a line headed by its entry.
UniProt P49841, whole entry: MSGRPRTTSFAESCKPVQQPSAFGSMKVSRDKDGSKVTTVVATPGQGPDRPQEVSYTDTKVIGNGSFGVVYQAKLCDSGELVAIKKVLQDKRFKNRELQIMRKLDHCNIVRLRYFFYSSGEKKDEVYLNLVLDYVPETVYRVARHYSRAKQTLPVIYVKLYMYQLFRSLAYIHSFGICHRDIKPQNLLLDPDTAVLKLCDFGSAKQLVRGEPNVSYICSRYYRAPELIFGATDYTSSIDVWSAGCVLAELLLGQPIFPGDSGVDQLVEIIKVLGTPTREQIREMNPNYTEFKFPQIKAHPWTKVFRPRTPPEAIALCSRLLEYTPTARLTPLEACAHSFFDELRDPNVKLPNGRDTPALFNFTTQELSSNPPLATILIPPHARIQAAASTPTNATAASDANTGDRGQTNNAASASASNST
UniProt Q14258, whole entry: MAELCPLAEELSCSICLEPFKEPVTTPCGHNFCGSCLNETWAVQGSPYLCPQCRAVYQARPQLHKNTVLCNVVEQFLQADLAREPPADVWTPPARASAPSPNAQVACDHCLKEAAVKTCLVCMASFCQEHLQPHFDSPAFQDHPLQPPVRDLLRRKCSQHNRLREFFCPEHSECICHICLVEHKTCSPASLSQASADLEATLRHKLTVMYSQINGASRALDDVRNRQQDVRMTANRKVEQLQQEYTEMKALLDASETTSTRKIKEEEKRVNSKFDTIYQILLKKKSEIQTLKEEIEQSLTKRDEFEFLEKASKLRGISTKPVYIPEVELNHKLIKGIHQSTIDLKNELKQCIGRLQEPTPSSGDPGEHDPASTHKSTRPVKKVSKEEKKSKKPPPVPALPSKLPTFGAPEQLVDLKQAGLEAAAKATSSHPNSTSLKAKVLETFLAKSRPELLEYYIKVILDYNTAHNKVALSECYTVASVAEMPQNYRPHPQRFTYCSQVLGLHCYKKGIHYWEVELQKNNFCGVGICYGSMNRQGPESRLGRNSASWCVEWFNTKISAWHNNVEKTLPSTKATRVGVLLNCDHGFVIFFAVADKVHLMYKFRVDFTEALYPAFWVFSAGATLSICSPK

Common to all, as to test: co-IP
For one experiment, the target named is T1, Flag-PPP1R14C (UniProt Q8TAE6).
T1 sequence: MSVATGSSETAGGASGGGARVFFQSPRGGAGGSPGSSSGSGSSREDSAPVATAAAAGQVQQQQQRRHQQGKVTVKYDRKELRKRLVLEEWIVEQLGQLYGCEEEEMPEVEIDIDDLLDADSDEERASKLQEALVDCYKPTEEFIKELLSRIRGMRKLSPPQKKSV

The target in the next experiment is HA-GSK3β (S9A) (UniProt P49841).
A further experiment has as its target HA-GSK3β (UniProt P49841).
Experiment [1] deals with T2, protein phosphatase 1 regulatory inhibitor subunit 14C (human (endogenous in SUM159PT)) (UniProt Q8TAE6).
T2 sequence: T1 sequence

As to “HA-GSK3β (S9A) (from UniProt P49841 1-420) (enzyme)”, in the experiment with Flag-PPP1R14C, the binding entry is on record as “binds”.

For the substance “HA-GSK3β (from UniProt P49841 1-420) (enzyme)”, the binding result with Flag-PPP1R14C is recorded as “binds”.

“HA-GSK3β phosphorylated at Ser9 (from UniProt P49841 1-420) (enzyme)”: in the experiment with Flag-PPP1R14C, the binding result is “binds”.

For “MYC-TRIM25 (from UniProt Q14258 1-630) (enzyme)”, the binding result with HA-GSK3β (S9A), with Flag-PPP1R14C and in the experiment with HA-GSK3β was “binds” in each case.

With “glycogen synthase kinase 3 beta (from UniProt P49841 1-420) (enzyme)”, the binding entry in experiment [1] is “binds”.

Turning to “glycogen synthase kinase 3 beta phosphorylated at Ser9 (from UniProt P49841 1-420) (enzyme)”, the binding result in experiment [1] was “binds”.

In the case of “tripartite motif containing 25 (from UniProt Q14258 1-630) (enzyme)”, the binding entry in experiment [1] was “binds”.
